Laboratory results published in article PMC7090148 (2020).
These are yes or no findings as the source states them, for the method shown. Binding seen in cells or lysates may run through a third protein. Binding can be weak; no strength is given. For part of these data: Tags and fused reporters may be left off the sequences shown.

Legend:
Mouse OFD1 S437R (mouse) = biological target: T1, Mouse OFD1 S437R (mouse) (UniProt Q80Z25); experiment: co-IP; OFD1 mutants co-expressed with TRAPPC8 or TRAPPC12; IP efficiency as ratio of immunoprecipitated TRAPPC8/OFD1 or TRAPPC12/OFD1; cell line and IP antibody not stated for this panel
T1 sequence: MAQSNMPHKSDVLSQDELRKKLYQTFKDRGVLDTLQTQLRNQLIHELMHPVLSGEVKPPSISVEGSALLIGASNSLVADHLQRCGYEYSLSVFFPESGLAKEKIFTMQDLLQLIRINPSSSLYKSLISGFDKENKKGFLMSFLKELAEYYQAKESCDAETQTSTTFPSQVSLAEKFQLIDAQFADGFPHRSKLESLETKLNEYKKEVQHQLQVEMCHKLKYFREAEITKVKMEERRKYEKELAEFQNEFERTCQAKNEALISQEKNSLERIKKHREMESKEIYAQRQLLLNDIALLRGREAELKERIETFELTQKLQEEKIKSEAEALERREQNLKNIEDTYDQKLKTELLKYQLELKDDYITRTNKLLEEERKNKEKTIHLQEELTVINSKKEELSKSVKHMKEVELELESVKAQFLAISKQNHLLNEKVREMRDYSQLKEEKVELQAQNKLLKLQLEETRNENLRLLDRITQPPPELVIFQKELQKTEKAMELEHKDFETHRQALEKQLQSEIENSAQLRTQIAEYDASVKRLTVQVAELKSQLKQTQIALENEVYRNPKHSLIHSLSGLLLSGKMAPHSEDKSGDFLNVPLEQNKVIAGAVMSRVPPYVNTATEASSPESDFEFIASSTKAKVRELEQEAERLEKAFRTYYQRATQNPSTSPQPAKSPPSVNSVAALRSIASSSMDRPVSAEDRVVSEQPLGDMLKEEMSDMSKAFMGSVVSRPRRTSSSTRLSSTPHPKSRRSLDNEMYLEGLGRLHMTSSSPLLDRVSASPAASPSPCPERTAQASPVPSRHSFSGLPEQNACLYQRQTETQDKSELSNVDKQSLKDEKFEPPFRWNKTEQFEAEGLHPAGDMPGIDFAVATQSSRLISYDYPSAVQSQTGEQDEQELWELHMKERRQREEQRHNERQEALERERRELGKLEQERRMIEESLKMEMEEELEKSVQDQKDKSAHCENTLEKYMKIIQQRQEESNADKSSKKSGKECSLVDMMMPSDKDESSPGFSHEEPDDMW

[1] = biological target: T2, Myc-tagged OFD1 (oral-facial-digital syndrome 1), full length (human) (UniProt O75665); experiment: co-IP; Myc-OFD1 (full length or truncations) co-transfected with NTAP-TRAPPC8 or NTAP-TRAPPC12 in HEK293T cells (wild type; also TRAPPC12-/- for TRAPPC8 and TRAPPC8-/- for TRAPPC12); lysate in RIPA buffer (20 mM Tris pH 8.0, 100 mM NaCl, 0.1% NP-40); IP with anti-Myc antibody and protein A-sepharose, 4°C overnight; immunoblot
T2 sequence: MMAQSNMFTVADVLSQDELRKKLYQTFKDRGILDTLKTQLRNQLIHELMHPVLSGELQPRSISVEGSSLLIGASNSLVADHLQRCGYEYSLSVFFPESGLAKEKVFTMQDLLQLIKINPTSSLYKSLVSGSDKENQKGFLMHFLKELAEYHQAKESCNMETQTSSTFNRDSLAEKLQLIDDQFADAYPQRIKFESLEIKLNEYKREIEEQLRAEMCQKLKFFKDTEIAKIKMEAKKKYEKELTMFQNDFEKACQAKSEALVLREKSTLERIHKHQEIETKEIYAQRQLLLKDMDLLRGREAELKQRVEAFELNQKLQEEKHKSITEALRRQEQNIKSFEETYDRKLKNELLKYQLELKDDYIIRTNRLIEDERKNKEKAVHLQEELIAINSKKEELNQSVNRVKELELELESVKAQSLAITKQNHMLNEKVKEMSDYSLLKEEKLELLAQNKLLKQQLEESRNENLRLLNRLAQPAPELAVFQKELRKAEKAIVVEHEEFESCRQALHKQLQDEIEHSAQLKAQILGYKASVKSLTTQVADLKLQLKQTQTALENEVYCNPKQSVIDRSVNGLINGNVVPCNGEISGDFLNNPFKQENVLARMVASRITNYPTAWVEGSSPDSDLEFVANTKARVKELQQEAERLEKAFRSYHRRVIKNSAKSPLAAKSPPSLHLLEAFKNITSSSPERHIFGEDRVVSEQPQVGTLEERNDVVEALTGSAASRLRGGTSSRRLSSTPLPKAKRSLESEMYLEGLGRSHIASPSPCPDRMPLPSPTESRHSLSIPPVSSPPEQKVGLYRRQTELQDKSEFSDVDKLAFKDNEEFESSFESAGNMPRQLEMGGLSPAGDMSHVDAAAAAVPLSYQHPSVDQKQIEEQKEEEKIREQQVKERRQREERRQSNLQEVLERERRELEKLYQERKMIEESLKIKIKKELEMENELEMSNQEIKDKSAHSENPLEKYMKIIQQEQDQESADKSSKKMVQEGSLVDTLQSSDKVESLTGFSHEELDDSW

[2] = biological target: T3, Myc-tagged OFD1 N-terminal region (residues 1-192), including the LisH motif (not stated (human or mouse cDNA cloned)) (UniProt O75665); experiment: as above
T3 sequence: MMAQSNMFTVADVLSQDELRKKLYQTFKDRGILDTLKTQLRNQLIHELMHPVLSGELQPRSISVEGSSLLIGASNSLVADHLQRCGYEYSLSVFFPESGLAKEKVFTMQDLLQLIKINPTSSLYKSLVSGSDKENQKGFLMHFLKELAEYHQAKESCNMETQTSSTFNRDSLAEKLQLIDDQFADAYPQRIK

Measured: binding

NTAP-tagged TRAPPC8 (mouse)
binds: all assays above
